At least one structure is not confirmed: it was looked up by name or label, or the drawing left a doubt.
Tests used:
p-ERK = experiment: Immunofluorescence of p-ERK levels in tumors; format: in vivo, mouse; conditions: trametinib dose level chosen for each tumor model, FIG. 8A
[1] = system: CD45^+ cells from mSK-Mel254 tumors; experiment: Coupled scRNA-seq and scTCR-seq of sorted CD45+ cells; format: in vivo, mouse; conditions: lead-in doses d7, MEKi regimens by d14, FIG. 9E
[2] = system: six murine syngeneic tumor models (YUMM1.7ER, NIL, NILER1-4, mSK-Mel254, CT26, KPC); experiment: Subcutaneous syngeneic tumor models, statements for all six models together; format: in vivo; conditions: FIGS. 2B to 2G, trametinib 1-5 mg/kg/d PO via chow depending on model, anti-PD-L1 200 μg/mouse IP twice per week
[3] = system: mSK-Mel254 (Nf1^−/− melanoma); experiment: Subcutaneous syngeneic tumor model, mSK-Mel254; format: in vivo, mouse (C57BL/6); conditions: anti-CD8 200 μg/mouse IP from one day before regimen, then twice a week; FIGS. 4B, 4C

CC(=O)Nc1cccc(-n2c(=O)n(C3CC3)c(=O)c3c(Nc4ccc(I)cc4F)n(C)c(=O)c(C)c32)c1 [Trametinib, trametinib]
p-ERK suppression on day 3 (p-ERK): near complete
CD8^+ TC levels (scRNA-seq) [1]: dropped clearly below that in the vehicle-treated tumors
Antitumor activity (tumor volumes over time) ([2]; d0 = tumors 120-140 mm^3, listed as MEKi d0): did not improve the durability of antitumor activities
Antitumor activity (tumor volumes over time) ([2]; d0 = tumors 120-140 mm^3, listed as MEKi d7): only transient tumor regression
Effect of systemic CD8^+ T-cell neutralization (anti-CD8 antibody) on the regimen's tumor regression and acquired resistance [3]: no impact on tumor regression or resistance development
